# This is one part of the list.
# B1: SUN4P (Saccharomyces cerevisiae), P53616 (protein)
# chain: MGSSHHHHHHSSGLVPRGSHNGSIYGDLADFSGPYEKFEDGTIPCGQFPSGQGVIPISWLDEGGWSGVENTDTSTGGSCKEGSYCSYACQPGMSKTQWPSDQPSDGRSIGGLLCKDGYLYRSNTDTDYLCEWGVDAAYVVSELSNDVAICLTDYPGTENMVIPTYVQAGDSLPLTVVDQDTYYTWQGLKTSAQYYVNNAGISVEDACVWGSSSSGVGNWAPLNFGAGSSDGVAYLSLIPNPNNGNALNFNVKIVAADDSSTVNGECIYENGSFSGGSDGCTVSVTAGKAKFVLYN
# Columns and labels:
# Test in all cases: glycan array binding signal (z-score within array); higher = stronger binding
# Settings in all cases: glycan notation: IUPAC condensed, linker removed; mutation: R276L
# Fuc(a1-2)Gal = molecular target: Fuc(a1-2)Gal
# Method in brief: (§1)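 Negative Z-scores can be read as non-binding. The Z-score is calculated within each array and then averaged across arrays of one protein sequence at different concentrations or buffers and across linkers. Arrays, 3228 in all, were curated from the Consortium for Functional Glycomics database and kept only where the protein sequence was available.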
# Fuc(a1-2)Gal(b1-3)GalNAc = molecular target: Fuc(a1-2)Gal(b1-3)GalNAc
# Method in brief: as §1
# [1] = molecular target: Fuc(a1-2)Gal(b1-3)GalNAc(a1-3)[Fuc(a1-2)]Gal(b1-4)Glc
# Method in brief: as §1
# [2] = molecular target: Fuc(a1-2)Gal(b1-3)GalNAc(a1-3)[Fuc(a1-2)]Gal(b1-4)GlcNAc
# Method in brief: as §1
# [3] = molecular target: Fuc(a1-2)Gal(b1-3)GalNAc(b1-3)Gal
# Method in brief: as §1
# [4] = molecular target: Fuc(a1-2)Gal(b1-3)GalNAc(b1-3)Gal(a1-4)Gal(b1-4)Glc
# Method in brief: as §1
# [5] = molecular target: Fuc(a1-2)Gal(b1-3)GalNAc(b1-4)[Neu5Ac(a2-3)]Gal(b1-4)Glc
# Method in brief: as §1
# Fuc(a1-2)Gal(b1-3)GlcNAc = molecular target: Fuc(a1-2)Gal(b1-3)GlcNAc
# Method in brief: as §1
# [6] = molecular target: Fuc(a1-2)Gal(b1-3)GlcNAc(b1-2)Man(a1-3)[Fuc(a1-2)Gal(b1-3)GlcNAc(b1-2)Man(a1-6)]Man(b1-4)GlcNAc(b1-4)GlcNAc
# Method in brief: as §1
# [7] = molecular target: Fuc(a1-2)Gal(b1-3)GlcNAc(b1-2)Man(a1-3)[Fuc(a1-2)Gal(b1-3)GlcNAc(b1-2)Man(a1-6)]Man(b1-4)GlcNAc(b1-4)[Fuc(a1-6)]GlcNAc
# Method in brief: as §1
# [8] = molecular target: Fuc(a1-2)Gal(b1-3)GlcNAc(b1-3)Gal(b1-4)Glc
# Method in brief: as §1
# [9] = molecular target: Fuc(a1-2)Gal(b1-3)GlcNAc(b1-3)GalNAc
# Method in brief: as §1
# [10] = molecular target: Fuc(a1-2)Gal(b1-3)GlcNAc(b1-3)[Fuc(a1-2)Gal(b1-3)GlcNAc(b1-6)]GalNAc
# Method in brief: as §1
# [11] = molecular target: Fuc(a1-2)Gal(b1-3)GlcNAc(b1-3)[Gal(b1-4)GlcNAc(b1-6)]Gal(b1-4)Glc
# Method in brief: as §1
# [12] = molecular target: Fuc(a1-2)Gal(b1-3)GlcNAc(b1-3)[Neu5Ac(a2-6)Gal(b1-4)GlcNAc(b1-6)]Gal(b1-4)Glc
# Method in brief: as §1
# [13] = molecular target: Fuc(a1-2)Gal(b1-3)GlcNAc6S
# Method in brief: as §1
# [14] = molecular target: Fuc(a1-2)Gal(b1-3)[Fuc(a1-4)]GlcNAc
# Method in brief: as §1
# [15] = molecular target: Fuc(a1-2)Gal(b1-3)[Fuc(a1-4)]GlcNAc(b1-2)Man(a1-3)[Fuc(a1-2)Gal(b1-3)[Fuc(a1-4)]GlcNAc(b1-2)Man(a1-3)]Man(b1-4)GlcNAc(b1-4)GlcNAc
# Method in brief: as §1
# [16] = molecular target: Fuc(a1-2)Gal(b1-3)[Fuc(a1-4)]GlcNAc(b1-2)Man(a1-3)[Fuc(a1-2)Gal(b1-3)[Fuc(a1-4)]GlcNAc(b1-2)Man(a1-6)]Man(b1-4)GlcNAc(b1-4)[Fuc(a1-6)]GlcNAc(b1-4)[Fuc(a1-6)]GlcNAc
# Method in brief: as §1
# [17] = molecular target: Fuc(a1-2)Gal(b1-3)[Fuc(a1-4)]GlcNAc(b1-3)[Fuc(a1-3)[Gal(b1-4)]GlcNAc(b1-6)]Gal(b1-4)Glc
# Method in brief: as §1
# [18] = molecular target: Fuc(a1-2)Gal(b1-3)[Fuc(a1-4)]GlcNAc(b1-3)[Gal(b1-4)GlcNAc(b1-6)]Gal(b1-4)Glc
# Method in brief: as §1
# [19] = molecular target: Fuc(a1-2)Gal(b1-4)Fuc(a1-3)]GlcNAc(b1-2)Man(a1-3)[Fuc(a1-2)Gal(b1-4)[Fuc(a1-3)]GlcNAc(b1-2)Man(a1-6)]Man(b1-4)GlcNAc(b1-4)GlcNAc
# Method in brief: as §1
# Fuc(a1-2)Gal(b1-4)Glc = molecular target: Fuc(a1-2)Gal(b1-4)Glc
# Method in brief: as §1
# Fuc(a1-2)Gal(b1-4)Glc6S = molecular target: Fuc(a1-2)Gal(b1-4)Glc6S
# Method in brief: as §1
# Fuc(a1-2)Gal(b1-4)GlcNAc = molecular target: Fuc(a1-2)Gal(b1-4)GlcNAc
# Method in brief: as §1
# [20] = molecular target: Fuc(a1-2)Gal(b1-4)GlcNAc(b1-2)Man
# Method in brief: as §1
# [21] = molecular target: Fuc(a1-2)Gal(b1-4)GlcNAc(b1-2)Man(a1-3)[Fuc(a1-2)Gal(b1-4)GlcNAc(b1-2)Man(a1-6)]Man(b1-4)GlcNAc(b1-4)GlcNAc
# Method in brief: as §1
# [22] = molecular target: Fuc(a1-2)Gal(b1-4)GlcNAc(b1-2)Man(a1-3)[Fuc(a1-2)Gal(b1-4)GlcNAc(b1-2)Man(a1-6)]Man(b1-4)GlcNAc(b1-4)[Fuc(a1-6)]GlcNAc
# Method in brief: as §1
# [23] = molecular target: Fuc(a1-2)Gal(b1-4)GlcNAc(b1-2)[Fuc(a1-2)Gal(b1-4)GlcNAc(b1-4)]Man(a1-3)[Fuc(a1-2)Gal(b1-4)GlcNAc(b1-2)Man(a1-6)]Man(b1-4)GlcNAc(b1-4)GlcNAc
# Method in brief: as §1
# [24] = molecular target: Fuc(a1-2)Gal(b1-4)GlcNAc(b1-3)Gal(b1-4)GlcNAc
# Method in brief: as §1
# [25] = molecular target: Fuc(a1-2)Gal(b1-4)GlcNAc(b1-3)Gal(b1-4)GlcNAc(b1-2)Man(a1-3)[Fuc(a1-2)Gal(b1-4)GlcNAc(b1-3)Gal(b1-4)GlcNAc(b1-2)Man(a1-6)]Man(b1-4)GlcNAc(b1-4)GlcNAc
# Method in brief: as §1
# [26] = molecular target: Fuc(a1-2)Gal(b1-4)GlcNAc(b1-3)Gal(b1-4)GlcNAc(b1-3)Gal(b1-4)GlcNAc
# Method in brief: as §1
# [27] = molecular target: Fuc(a1-2)Gal(b1-4)GlcNAc(b1-3)GalNAc
# Method in brief: as §1
# [28] = molecular target: Fuc(a1-2)Gal(b1-4)GlcNAc(b1-3)[Fuc(a1-2)Gal(b1-4)GlcNAc(b1-6)]GalNAc
# Method in brief: as §1
# [29] = molecular target: Fuc(a1-2)Gal(b1-4)GlcNAc(b1-3)[Fuc(a1-3)[Gal(b1-4)]GlcNAc(b1-6)]Gal(b1-4)Glc
# Method in brief: as §1
# [30] = molecular target: Fuc(a1-2)Gal(b1-4)GlcNAc(b1-6)GalNAc
# Method in brief: as §1
# [31] = molecular target: Fuc(a1-2)Gal(b1-4)GlcNAc6S
# Method in brief: as §1
binder,measurement,setting,value
B1,glycan array binding signal (z-score),Fuc(a1-2)Gal,-0.421
same,glycan array binding signal (z-score),Fuc(a1-2)Gal(b1-3)GalNAc,-0.45
same,glycan array binding signal (z-score),[1],-1.53
same,glycan array binding signal (z-score),[2],-1.35
same,glycan array binding signal (z-score),[3],0.452
same,glycan array binding signal (z-score),[4],-0.695
same,glycan array binding signal (z-score),[5],-0.582
same,glycan array binding signal (z-score),Fuc(a1-2)Gal(b1-3)GlcNAc,-0.181
same,glycan array binding signal (z-score),[6],-0.418
same,glycan array binding signal (z-score),[7],-0.67
same,glycan array binding signal (z-score),[8],-0.334
same,glycan array binding signal (z-score),[9],-0.616
same,glycan array binding signal (z-score),[10],-0.484
same,glycan array binding signal (z-score),[11],0.246
same,glycan array binding signal (z-score),[12],-0.454
same,glycan array binding signal (z-score),[13],-1.78
same,glycan array binding signal (z-score),[14],0.13
same,glycan array binding signal (z-score),[15],-0.222
same,glycan array binding signal (z-score),[16],1.49
same,glycan array binding signal (z-score),[17],-1.15
same,glycan array binding signal (z-score),[18],-0.39
same,glycan array binding signal (z-score),[19],0.418
same,glycan array binding signal (z-score),Fuc(a1-2)Gal(b1-4)Glc,-0.423
same,glycan array binding signal (z-score),Fuc(a1-2)Gal(b1-4)Glc6S,-0.716
same,glycan array binding signal (z-score),Fuc(a1-2)Gal(b1-4)GlcNAc,-0.222
same,glycan array binding signal (z-score),[20],-0.082
same,glycan array binding signal (z-score),[21],-0.72
same,glycan array binding signal (z-score),[22],-0.278
same,glycan array binding signal (z-score),[23],1.31
same,glycan array binding signal (z-score),[24],-0.53
same,glycan array binding signal (z-score),[25],0.582
same,glycan array binding signal (z-score),[26],-0.515
same,glycan array binding signal (z-score),[27],-0.667
same,glycan array binding signal (z-score),[28],-0.351
same,glycan array binding signal (z-score),[29],0.444
same,glycan array binding signal (z-score),[30],-0.896
same,glycan array binding signal (z-score),[31],1.81

# Not a retest: an excerpt of the list.
binder,measurement,setting,value
B1,glycan array binding signal (z-score),Fuc(a1-2)Gal(b1-4)Glc6S,-0.716
same,glycan array binding signal (z-score),Fuc(a1-2)Gal(b1-4)GlcNAc,-0.222

# Reference: the supplement of paper PMC8728848
